Source: the supplement of paper PMC4683952
This is one part of the list. Cut-off read from the data, not from the text of the source: active = 2 or more and inactive = the rest. This data set is noisy: repeats of one test often differ as much as different tests do.

Each compound was assayed on Lgr5 (MarsCy1-Lgr5-EGFP, U2OS) (assay: cell-surface Lgr5 expression (SCi1 fluorescence, background-subtracted) relative to WT DMSO (fold of DMSO control); higher = more Lgr5 at the plasma membrane). Conditions: U2OS MarsCy1-Lgr5-EGFP stable; treatment time: overnight; library: ActiProbe-5K (TimTec); 25 µM.

| Structure (SMILES) | cell-surface Lgr5 expression |
| --- | --- |
| c1ccc(CCn2c(CSc3nc4ccccc4o3)nc3ccccc32)cc1 | inactive: 0.856 |
| OCCCN(CC(O)COc1ccccc1)CC(O)COc1ccccc1 (stereo unspecified) | inactive: 1.25 |
| O=C(CC1NCCNC1=O)OCC1CCCO1 (stereo unspecified) | inactive: 0.978 |
| Cc1nc2ccccn2c1-c1csc(N)n1 | inactive: 1.27 |
| CC(C)(C)C1CCC2(CC1)N[C@H](C(=O)O)CS2 (stereo partly specified) | inactive: 1.24 |
| Cc1ccsc1C1CC(=O)Nc2c1c(=O)nc1c(C)cccn21 (stereo unspecified) | inactive: 1.01 |
| CCc1ccc(-c2noc3ncnc(NC)c23)s1 | inactive: 0.976 |
| Cl.NCC(=O)c1cccs1 | inactive: 1.18 |
| O=Cc1ccc(N2CCCC2)o1 | inactive: 1.09 |
| O=C(O)Cn1cc([N+](=O)[O-])cn1 | inactive: 1.25 |
| N#C/C(=C1\CCCN1)c1nnc2n1CCCCC2 | inactive: 0.926 |
| CC(C)N1CC2=C(OC(N)=C(C#N)C2c2cccs2)/C(=C/c2cccs2)C1 (stereo unspecified) | inactive: 0.93 |
| Brc1ccc2ncnc(Nc3ccc4c(c3)OCCO4)c2c1 | inactive: 0.391 |
| CNC(=O)C12CC3CC(CC(C3)C1)C2 | inactive: 1.28 |
| Cc1cc(O)c(C(C)(C)c2c(O)cc(C)cc2C(C)(C)C)c(C(C)(C)C)c1 | inactive: 1.05 |
| CCOC(=O)c1n[nH]c2cc(C)nn2c1=O | inactive: 0.971 |
| O=S(=O)(Nn1cnnc1)c1ccccc1 | inactive: 1.2 |
| Cn1c(=O)c2c(nc(Sc3ncnn3CC(=O)NC(C)(C)C)n2C)n(C)c1=O | inactive: 1.33 |
| C(=N/N1CCN(C2c3ccccc3-c3ccccc32)CC1)/c1cccs1 | inactive: 0.988 |
| OC(c1nnc(S)n1-c1ccccc1)C(O)c1nnc(S)n1-c1ccccc1 (stereo unspecified) | inactive: 1.55 |
| CCN(CC)NC(=S)NC1CCCCC1 | inactive: 1.21 |
| O=[N+]([O-])c1ccc(C2NNC(=S)S2)cc1 (stereo unspecified) | inactive: 1.05 |

Random excerpt: five entries already listed, in no set order.

| Structure (SMILES) | cell-surface Lgr5 expression |
| --- | --- |
| O=Cc1ccc(N2CCCC2)o1 | inactive: 1.09 |
| CNC(=O)C12CC3CC(CC(C3)C1)C2 | inactive: 1.28 |
| O=S(=O)(Nn1cnnc1)c1ccccc1 | inactive: 1.2 |
| CC(C)(C)C1CCC2(CC1)N[C@H](C(=O)O)CS2 (stereo partly specified) | inactive: 1.24 |
| Cl.NCC(=O)c1cccs1 | inactive: 1.18 |

(more compounds)

| Structure (SMILES) | cell-surface Lgr5 expression |
| --- | --- |
| Cn1c(S)nnc1-c1ccco1 | inactive: 0.963 |
| O=S(=O)(c1ccc(F)cc1)N1CCN(c2ncccn2)CC1 | inactive: 1.28 |
| Oc1ccnc(C(F)(F)F)n1 | inactive: 0.954 |
| OC(CNC1CCCCC1)CSCC(O)CNC1CCCCC1 (stereo unspecified) | inactive: 1.8 |
| Fc1ccc(OCc2nc(-c3ccncc3)no2)c(F)c1 | inactive: 0.957 |
| N#Cc1c(SCc2ccc(Cl)nc2)nsc1SCc1ccc(Cl)nc1 | inactive: 0.878 |
| O=C(NCc1ccco1)N1CCOCC1 | inactive: 1.06 |
| Cc1ccc(C2=NNC(c3ccccc3)=Nc3ccccc32)cc1 | inactive: 1.53 |
| C1=NC(Cc2cccc3ccccc23)NC1.Cl (stereo unspecified) | inactive: 1.16 |
| Cc1ccc(/C=N/NC(=O)c2ccoc2C)o1 | inactive: 0.989 |
| CC1(C)CC2(CC(C)(C)N1)OC(=O)N(CCN1C(=O)OC3(CC(C)(C)NC(C)(C)C3)C1(C)O)C2(C)O (stereo unspecified) | inactive: 1.5 |
| CNC(=S)Nc1ccc(F)cc1 | inactive: 1.14 |
| CCCCc1nc2[nH]nc(N)c2c2c1CCC2 | inactive: 1.25 |
| CS(=O)(=O)NCCc1c[nH]c2ccc(Cl)cc12 | inactive: 0.911 |
| N#CC12C(N)=NC3(OCCO3)C1(C#N)C2c1ccco1 (stereo unspecified) | inactive: 1.05 |
| CC1=C(Cl)c2ccc(Cl)cc2S1(=O)=O | inactive: 1.16 |
| CSc1nc2c(cc1C#N)CCCCC2 | inactive: 1.27 |
| Cc1nn(C)cc1-c1nnc(C23CC4CC(CC(C4)C2)C3)o1 | inactive: 1.28 |
| CCOC(=O)C1=C(C)NC2=C(C(=O)CC(C)(C)C2)C1c1ccc(C)s1 (stereo unspecified) | inactive: 1.12 |
| CC(C)n1cc(NC(=O)Cn2cc([N+](=O)[O-])cn2)cn1 | inactive: 0.954 |
| C#CC(C)(C)N1CC(C)C(=O)CC1C (stereo unspecified) | inactive: 1.16 |
| Fc1cc(F)c(F)c(OCc2nc(-c3ccncc3)no2)c1F | inactive: 0.805 |

| Structure (SMILES) | cell-surface Lgr5 expression |
| --- | --- |
| NC(=O)c1c(NC(=O)C2CCCO2)sc2c1CCCC2 (stereo unspecified) | inactive: 0.945 |
| c1ccc2[nH]c(C3CCCN3)nc2c1 (stereo unspecified) | inactive: 1.17 |
| O=C(NCCC1=CCCCC1)C(=O)NC1CCCCC1 | inactive: 1.26 |
| CC(=C/c1ccco1)/C=N/n1cnnc1 | inactive: 1.03 |
| CCOC(=O)C1CN(C2CCCCC2)C(=O)C1=O (stereo unspecified) | inactive: 1.01 |
| Cc1c(C#N)c(N)n(CC2CCCO2)c1C (stereo unspecified) | inactive: 0.918 |
| O=C(/C=C/c1ccc(Cl)c(Cl)c1)c1ccc2c(c1)OCO2 | inactive: 1.33 |
| N#Cc1cc2nc3ccccn3c2cc1C#N | inactive: 1.03 |
| Cc1c(C)c2c(C)n[nH]c2oc1=O | inactive: 0.977 |
| Cc1nnc(SCc2c(C)cc(C)c(CSc3nnc(C)s3)c2C)s1 | inactive: 1.03 |
| CC(C)n1cc(C=O)c2ccc(F)cc21 | inactive: 0.406 |
| O=C(O)C1=CC(Cl)=C(Cl)[C@H](O)[C@@H]1O | inactive: 1.33 |
| C1(C(C\2(C(O1)(CCC2=C(/C)C)C)C)Cc1ncccc1)=O (stereo unspecified) | inactive: 1.09 |
| CCC(C)(C#CCN1CCCCC1)OCCC#N (stereo unspecified) | inactive: 1.05 |
| C=C(C)CC1NC2CC(C)(C)C1c1c(Br)ccc(Br)c12.Cl (stereo unspecified) | inactive: 1.18 |
| O/N=C1\c2ccccc2-c2nc3ccccc3nc21 | inactive: 1.24 |
| COC(=O)C12CC3(C(=O)OC)CC(C(=O)OC)(CC(C(=O)OC)(C1)C3=O)C2=O | inactive: 1.16 |
| C/C=C/C1OC(=O)C2(CCCCC2)C(=O)C1(C)C (stereo unspecified) | inactive: 1.1 |
| CCn1nc(N)c2c(C)c(Cl)c(C)nc21 | inactive: 1.22 |
| O=C(Nc1nc(-c2ccc(Br)s2)cs1)c1ccnn1C(F)F | inactive: 0.637 |
| O=C1C=CC(=O)N1C1CCCCC1 | inactive: 1.29 |
| CSC1=NC(C)(C)CC2=C(C)C=C(C)C3(CC(C)(C)N=C3SC)C2=C1 (stereo unspecified) | inactive: 1.22 |

| Structure (SMILES) | cell-surface Lgr5 expression |
| --- | --- |
| CC1(C)Nc2ccccc2-c2c1ss/c2=N/c1cccc(Cl)c1 | inactive: 1.45 |
| COc1ccc2c(c1)-c1c(ssc1=S)C(C)(C)N2 | inactive: 0.538 |
| CCn1cc(Cn2cc(NC(=O)CCn3nc(C(F)(F)F)c(Cl)c3C)cn2)cn1 | inactive: 1.1 |
| CC1CC(C)(C)Nc2ccc(O)cc21 (stereo unspecified) | active: 2.3 |
| COc1cc2c(cc1OC)/C(=C\c1cc(OC)c(OC)c(OC)c1)C(=O)N2 | inactive: 1.23 |
| Cc1c(C2NC(N)=Nc3nc4ccccc4n32)c2ccccc2n1C (stereo unspecified) | inactive: 1.29 |
| CC(C)COC(=O)CNc1n[nH]c(=O)[nH]c1=O | inactive: 1.19 |
| Fc1ccc(OCc2nc(-c3ccc(Br)o3)no2)c(F)c1 | inactive: 1 |
| Fc1ccc2[nH]c3nc4ncc(Br)cc4nc3c2c1 | inactive: 1.23 |
| Fc1ccc(/C=N\N2CCN(C3c4ccccc4-c4ccccc43)CC2)cc1 | inactive: 1.02 |
| COC(=O)c1c(NC(=O)CCC(=O)O)sc2c1CCC2 | inactive: 0.814 |
| C(=N\Nc1nnn[nH]1)/c1c2ccccc2cc2ccccc12 | inactive: 1.55 |
| O=C(Nc1nncs1)c1ccco1 | inactive: 1.22 |
| CN(C)c1ccc(S(C)(=O)=O)cc1 | inactive: 1.06 |
| [O-][n+]1onc2cc(F)c(F)cc21 | inactive: 0.916 |
| N#C/C(=C/c1ccc2c(c1)OCO2)c1ccc(Cl)cc1Cl | active: 2.54 |
| Clc1ccc2c(c1)nc(SCc1ccon1)n1nccc21 | inactive: 0.906 |
| N#Cc1c(SCC(=O)NC23CC4CC(CC(C4)C2)C3)sc2c(=O)[nH]c(=O)[nH]c12 | inactive: 1.45 |
| Fc1cc(F)c(C2SCCN2C(=S)NCCc2ccccc2)c(F)c1 (stereo unspecified) | inactive: 1.39 |
| CC(NCc1cccs1)C12CC3CC(CC(C3)C1)C2 (stereo unspecified) | inactive: 1.11 |
| CCCCCCCCCCCCN1CNC(=S)NC1 | inactive: 1.08 |
| CN1CCOCC1.N#Cc1c(S)[nH]c(C(F)(F)F)cc1=O | inactive: 1.11 |

| Structure (SMILES) | cell-surface Lgr5 expression |
| --- | --- |
| Cn1cc(Cn2cc(Cl)c([N+](=O)[O-])n2)cn1 | inactive: 1.33 |
| O=C(C1CC12CCC2)N1CCc2ccccc21 (stereo unspecified) | inactive: 1.52 |
| CCOC(=O)c1c(N)sc2c1CCC2 | inactive: 1.04 |
| Cc1nnc(SCC(=O)Nc2sc3c(c2C#N)CCC3)s1 | inactive: 1.13 |
| N=C(N)NS(=O)(=O)c1ccc(N)cc1 | inactive: 1.09 |
| CCn1c(Cl)nc2c1c(=O)n(C)c(=O)n2C | inactive: 1.14 |
| CN1c2ccccc2Oc2nnc(N3CCN(C(c4ccccc4)c4ccccc4)CC3)cc21 | inactive: 1.04 |
| N#Cc1c(SCC(N)=O)sc2c(O)nc(=O)[nH]c12 | inactive: 1.26 |
| N#Cc1c(SCc2ccccc2F)nsc1SCc1ccccc1F | inactive: 0.774 |
| c1ccc(-c2noc(CSc3nc(-c4ccccc4)c(-c4ccccc4)[nH]3)n2)cc1 | inactive: 1.16 |
| C=C(/C=C/C(=C\C)N1N=C(C)/C(=C\c2ccc(-c3ccc4c(c3)C(=O)NC4=O)o2)C1=O)CC | inactive: 1.26 |
| Nc1c2nc[nH]c2c(N)c2[nH]c(=O)c(=O)[nH]c12 | inactive: 0.999 |
| C=CCNc1nc2c(c(=O)[nH]c(=O)n2C)n1CCO | inactive: 1.38 |
| CSc1nc2ccc(S(=O)(=O)N(C)C)cc2s1 | inactive: 1.22 |
| CCn1cc(CCO)c2ccccc21 | inactive: 1.44 |
| Nn1c(-c2ccccn2)nnc1-c1ccccn1 | inactive: 1.25 |
| Cn1c(SCc2ccc3c(c2)OCO3)nnc1-c1ccccc1 | inactive: 1.75 |
| CC(C)CC(NC1CCS(=O)(=O)C1)C(=O)O (stereo unspecified) | inactive: 0.989 |
